Data reported in patent US20260284208A1, “SYSTEM” (Oxford University Innovation Limited, priority 2023, published 2026).
This continues a long series; more values of the same kind are listed elsewhere.

Test system: library of 8,380 IKZF3 degrons (ZF-eGFP/mCherry reporter) in Jurkat cells
Assay: Pooled library screen (FACS, NGS, limma voom LogFC of positive vs negative read counts)
Type: cell-based, human
Method: A library of 8,380 IKZF3 degrons was cloned into pLVX-Sprout to create the eGFP/mCherry protein degradation reporter plasmid pool. A lentivirus pool was then generated using the Lenti-X lentiviral vector production method.
Jurkat cells were transduced at a multiplicity of infection of <0.3 with the lentivirus vector library in order to maximise the number of cells with a single integration. Transductions were carried out in 6 well TC-treated cell culture dishes (Falcon) with 3×10^6 cells per well. Cells were incubated for 2 days at 37° C. and 5% CO2 before the supernatant was removed and replaced with fresh media. 6 days post-transduction, mCherry+ cells were isolated via FACS using the FACS Aria Fusion (BD) in a buffer containing PBS (Gibco), 2 mM EDTA (Gibco), 25 mM HEPES (Sigma) and 1% BSA (Sigma). 8 days later, cells were treated with DMSO or a thalidomide analog for 18 hours at 37° C. and 5% CO2. mCherry+GFPlow and NOT(mCherry+GFPlow) cells were sorted by FACS using the FACS Aria Fusion (BD). DMSO treated cells were used to set the mCherry+GFPlow gate and dead cells were excluded from sorting by staining cells with 1 μg/mL DAPI (ThermoFisher). gDNA was isolated using the Maxwell RSC 48 (Promega). gDNA from cells that were unsorted and untreated were also isolated to determine the library representation on the day of compound treatment. Throughout the screen >600× coverage of the library was maintained. 3 biological replicates were carried out with a new transduction taking place each time.
A two-step PCR was used where the first PCR (PCR1) amplified the integrated degron sequence from gDNA and the second PCR (PCR2) added Illumina adaptors and barcodes to permit multiplexing. See Supp F for PCR1 and PCR2 primers. Q5 Hot Start High-Fidelity 2× Master Mix (New England Biolabs) was used for both PCRs. Sufficient gDNA was amplified in PCR1 in order to maintain >600× coverage and amplicons were purified using solid phase reversible immobilization (SPRI) beads (Beckman Coulter). Purified PCR1 products were analysed on the Tapestation 4200 (Agilent) to confirm purity prior to proceeding to PCR2. Sufficient PCR1 product was amplified in PCR2 in order to maintain >600× coverage and amplicons were run on a 2% agarose TAE gel. Target bands were excised and purified using the NucleoSpin Gel and PCR Clean-up Kit (Machery Nagel). Amplicons were analysed on the Tapestation 4200 and quantified using Qubit dsDNA HS kit (ThermoFisher). PCR products were pooled and sequenced as paired-reads on the NovaSeq (Illumina) using a SP2 200 cycles kit (Illumina).
Count distributions, percentage of read mapping, library coverage and replicate correlation per sample were assessed for QC purposes.
To carry out the library screen, we used the same plasmid construct as in our earlier flow cytometry assays, but pooling all 8,380 mutants together into one Jurkat population, ensuring a copy number of one plasmid per cell (FIG. 4B). […] These GFP-negative cells were then separated from the remaining GFP-positive population using fluorescence activated cell sorting (FACS). These two populations were then sequenced and the relative abundance of every mutant in both populations compared to provide a log FC value for each mutant sequence. This value indicated how frequently a sequence is observed in the GFP-negative population relative to the GFP-positive population, and therefore how effective a degron it is for that particular IMID compound.

Compound O=C1CCC(N2C(=O)c3ccc(N4CCOCC4)cc3C2=O)C(=O)N1 (stereo not shown) [B03] has a B03_logFC (Degron-ID 3955, SEQ ID NO 3858, 46F_47V_49E_50V_52G_53A_54S_55F_67L) of 2.911, a B03_logFC (Degron-ID 3972, SEQ ID NO 3660, 46F_47V_49N_50I_52G_53A_54P_55F_67L_) of 3.322 and a B03_logFC (Degron-ID 4020, SEQ ID NO 3900, 46F_47V_49P_50I_52G_53A_54A_55F_67L) of 2.85. For the same compound, the B03_logFC (Degron-ID 4021, SEQ ID NO 4347, 46F_47V_49P_50I_52G_53A_54C_55F_67L_) was 2.129, the B03_logFC (Degron-ID 4025, SEQ ID NO 3767, 46F_47V_49P_50I_52G_53A_54G_55F_67L_) was 3.085 and the B03_logFC (Degron-ID 4026, SEQ ID NO 4352, 46F_47V_49P_50I_52G_53A_54H_55F_67L_) was 2.119. For the same compound, the B03_logFC (Degron-ID 4031, SEQ ID NO 4037, 46F_47V_49P_50I_52G_53A_54N_55F_67L) was 2.628, the B03_logFC (Degron-ID 4033, SEQ ID NO 3788, 46F_47V_49P_50I_52G_53A_54Q_55F_67L_) was 3.03 and the B03_logFC (Degron-ID 4035, SEQ ID NO 3937, 46F_47V_49P_50I_52G_53A_54S_55F_67L) was 2.78. The B03_logFC (Degron-ID 4052, SEQ ID NO 4382, 46F_47V_49P_50Q_52G_53A_54P_55F_67L_) was 2.064, the B03_logFC (Degron-ID 4060, SEQ ID NO 3704, 46F_47V_49P_50V_52G_53A_54A_55F_67L_) was 3.204 and the B03_logFC (Degron-ID 4072, SEQ ID NO 3656, 46F_47V_49P_50V_52G_53A_54P_55F_67L_) was 3.333. The B03_logFC (Degron-ID 4073, SEQ ID NO 4041, 46F_47V_49P_50V_52G_53A_54Q_55F_67L) was 2.62, the B03_logFC (Degron-ID 4074, SEQ ID NO 4320, 46F_47V_49P_50V_52G_53A_54R_55F_67L_) was 2.175 and the B03_logFC (Degron-ID 4075, SEQ ID NO 3910, 46F_47V_49P_50V_52G_53A_54S_55F_67L) was 2.833. The B03_logFC (Degron-ID 4084, SEQ ID NO 4321, 46F_47W_49D_50I_52G_53A_54F_55F_67L_) was 2.175, the B03_logFC (Degron-ID 4089, SEQ ID NO 4296, 46F_47W_49D_50I_52G_53A_54L_55F_67L_) was 2.23 and the B03_logFC (Degron-ID 4096, SEQ ID NO 3775, 46F_47W_49D_50I_52G_53A_54T_55F_67L_) was 3.054. The B03_logFC (Degron-ID 4097, SEQ ID NO 3812, 46F_47W_49D_50I_52G_53A_54V_55F_67L_) was 2.986, the B03_logFC (Degron-ID 4099, SEQ ID NO 4256, 46F_47W_49D_50I_52G_53A_54Y_55F_67L_) was 2.281 and the B03_logFC (Degron-ID 4111, SEQ ID NO 4324, 46F_47W_49D_50Q_52G_53A_54N_55F_67L_) was 2.168. It also gave a B03_logFC (Degron-ID 4126, SEQ ID NO 3707, 46F_47W_49D_50V_52G_53A_54H_55F_67L_) of 3.202, a B03_logFC (Degron-ID 4128, SEQ ID NO 3708, 46F_47W_49D_50V_52G_53A_54K_55F_67L_) of 3.202 and a B03_logFC (Degron-ID 4136, SEQ ID NO 3887, 46F_47W_49D_50V_52G_53A_54T_55F_67L) of 2.873. For the same compound, the B03_logFC (Degron-ID 4143, SEQ ID NO 3934, 46F_47W_49E_50I_52G_53A_54E_55F_67L) was 2.781, the B03_logFC (Degron-ID 4144, SEQ ID NO 3747, 46F_47W_49E_50I_52G_53A_54F_55F_67L_) was 3.129 and the B03_logFC (Degron-ID 4145, SEQ ID NO 3882, 46F_47W_49E_50I_52G_53A_54G_55F_67L) was 2.877. The B03_logFC (Degron-ID 4149, SEQ ID NO 3813, 46F_47W_49E_50I_52G_53A_54L_55F_67L_) was 2.986, the B03_logFC (Degron-ID 4159, SEQ ID NO 3854, 46F_47W_49E_50I_52G_53A_54Y_55F_67L) was 2.917 and the B03_logFC (Degron-ID 4166, SEQ ID NO 4394, 46F_47W_49E_50Q_52G_53A_54H_55F_67L_) was 2.047. It also gave a B03_logFC (Degron-ID 4171, SEQ ID NO 3922, 46F_47W_49E_50Q_52G_53A_54N_55F_67L) of 2.803, a B03_logFC (Degron-ID 4173, SEQ ID NO 3841, 46F_47W_49E_50Q_52G_53A_54Q_55F_67L_) of 2.94 and a B03_logFC (Degron-ID 4174, SEQ ID NO 3753, 46F_47W_49E_50Q_52G_53A_54R_55F_67L_) of 3.121. The B03_logFC (Degron-ID 4184, SEQ ID NO 3856, 46F_47W_49E_50V_52G_53A_54F_55F_67L) was 2.916, the B03_logFC (Degron-ID 4185, SEQ ID NO 3930, 46F_47W_49E_50V_52G_53A_54G_55F_67L) was 2.789 and the B03_logFC (Degron-ID 4187, SEQ ID NO 3741, 46F_47W_49E_50V_52G_53A_54I_55F_67L_) was 3.147. For the same compound, the B03_logFC (Degron-ID 4192, SEQ ID NO 3851, 46F_47W_49E_50V_52G_53A_54P_55F_67L) was 2.919, the B03_logFC (Degron-ID 4199, SEQ ID NO 3819, 46F_47W_49E_50V_52G_53A_54Y_55F_67L_) was 2.977 and the B03_logFC (Degron-ID 4200, SEQ ID NO 3662, 46F_47W_49N_50I_52G_53A_54A_55F_67L_) was 3.321. For the same compound, the B03_logFC (Degron-ID 4201, SEQ ID NO 3646, 46F_47W_49N_50I_52G_53A_54C_55F_67L_) was 3.356, the B03_logFC (Degron-ID 4203, SEQ ID NO 4407, 46F_47W_49N_50I_52G_53A_54E_55F_67L_) was 2.033 and the B03_logFC (Degron-ID 4206, SEQ ID NO 3711, 46F_47W_49N_50I_52G_53A_54H_55F_67L_) was 3.193. The B03_logFC (Degron-ID 4207, SEQ ID NO 4328, 46F_47W_49N_50I_52G_53A_54I_55F_67L_) was 2.157.
